Assay results published in paper PMC7294662.

T1: IFI35 (human (endogenous in HeLa)) (UniProt P80217)
T1 sequence: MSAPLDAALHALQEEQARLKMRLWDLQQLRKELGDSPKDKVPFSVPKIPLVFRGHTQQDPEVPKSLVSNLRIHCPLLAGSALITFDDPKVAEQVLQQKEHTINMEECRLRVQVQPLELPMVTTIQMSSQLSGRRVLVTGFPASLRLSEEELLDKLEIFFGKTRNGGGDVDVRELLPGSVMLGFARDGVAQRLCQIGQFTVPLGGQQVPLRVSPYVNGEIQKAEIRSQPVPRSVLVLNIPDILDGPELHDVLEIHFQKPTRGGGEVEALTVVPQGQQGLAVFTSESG

T2: NMI (human (endogenous in HeLa)) (UniProt Q13287)
T2 sequence: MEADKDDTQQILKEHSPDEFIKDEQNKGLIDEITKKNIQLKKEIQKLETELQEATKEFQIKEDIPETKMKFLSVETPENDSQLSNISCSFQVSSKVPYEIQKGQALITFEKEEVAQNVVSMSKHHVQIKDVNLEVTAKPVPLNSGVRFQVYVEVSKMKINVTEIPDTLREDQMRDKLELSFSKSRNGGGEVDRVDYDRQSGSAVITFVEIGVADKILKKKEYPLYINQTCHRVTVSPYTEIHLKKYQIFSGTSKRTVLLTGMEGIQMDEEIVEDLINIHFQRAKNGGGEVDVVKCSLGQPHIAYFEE


Legend:
[1] = target: T1, IFI35 (human (endogenous in HeLa)); experiment: affinity purification with mass spectrometry; immunoprecipitation of the endogenous bait from control or IFN-stimulated HeLa lysate (250 μg protein in SEC buffer) with antibody overnight at 4 °C, protein A/G magnetic beads, on-bead trypsin digestion, label-free quantitation; IgG as control
[2] = target: T2, NMI (human (endogenous in HeLa)); experiment: as above

binding [1]	binding [2]	Binder
binds	–	NMI (protein, UniProt Q13287 1-307) MEADKDDTQQILKEHSPDEFIKDEQNKGLIDEITKKNIQLKKEIQKLETELQEATKEFQIKEDIPETKMKFLSVETPENDSQLSNISCSFQVSSKVPYEIQKGQALITFEKEEVAQNVVSMSKHHVQIKDVNLEVTAKPVPLNSGVRFQVYVEVSKMKINVTEIPDTLREDQMRDKLELSFSKSRNGGGEVDRVDYDRQSGSAVITFVEIGVADKILKKKEYPLYINQTCHRVTVSPYTEIHLKKYQIFSGTSKRTVLLTGMEGIQMDEEIVEDLINIHFQRAKNGGGEVDVVKCSLGQPHIAYFEE
–	binds	IFI35 (protein, UniProt P80217 1-286) MSAPLDAALHALQEEQARLKMRLWDLQQLRKELGDSPKDKVPFSVPKIPLVFRGHTQQDPEVPKSLVSNLRIHCPLLAGSALITFDDPKVAEQVLQQKEHTINMEECRLRVQVQPLELPMVTTIQMSSQLSGRRVLVTGFPASLRLSEEELLDKLEIFFGKTRNGGGDVDVRELLPGSVMLGFARDGVAQRLCQIGQFTVPLGGQQVPLRVSPYVNGEIQKAEIRSQPVPRSVLVLNIPDILDGPELHDVLEIHFQKPTRGGGEVEALTVVPQGQQGLAVFTSESG

These are yes or no findings as the source states them, for the method shown. In cells and extracts the contact can be indirect. These calls come from enrichment with a bait or labelling near it, and not all partners need be listed.
